# Experimental data reported in PubChem BioAssay AID2685 (National Center for Advancing Translational Sciences (NCATS), 2010).
# The other results are listed elsewhere or left out. Shown are side measurements of this screen, not its main read-out; they come without a call. Compounds called inactive in the main read-out are mostly missing here. Potencies come from curve fits of mixed quality, noted in brackets.
# Assay: qHTS Assay for Lipid Storage Modulators in Drosophila S3 Cells;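 as to cell number change: cells counted by Cell Tracker Red CMTPX staining in the red channel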
# Conditions: BODIPY lipid droplet fluorescence, 18-24 h; for cell number change: measured here: cell count max response, cells fed with added oleic acid
# Method in brief: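 Drosophila S3 cells got compounds at several concentrations plus oleic acid (400 uM solution). Laser-scanning cytometry with 488 nm excitation read lipid droplets at 500-530 nm and cells at 575-640 nm. Percent activity was relative to 20 uM Triacsin C.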
# [1] = measured here: cell number channel AC50, cells fed with added oleic acid
# [2] = measured here: lipid fluorescence (Fed channel) AC50, cells fed with added oleic acid
Compound,cell number change [%],AC50 [1],AC50 [2]
CC(C)CCOC(=O)C[N+](C)(C)CCOC1CC2CCC1(C)C2(C)C (stereo not given),-62.5,"29.1 µM [falling, single point]","0.146 µM [falling, full curve, poor fit]"
Cc1ccc2[nH]c(O)c(N=Nc3nc4ccccc4s3)c2c1,-93.8,"29.1 µM [falling, single point]","29.1 µM [falling, partial curve]"
O=C1Nc2ccccc2OC1CC(=O)N1CCOCC1 (stereo not given),-17.8,,
CCN(CC)C(=O)C1CCCN(C/C=C/c2ccccc2)C1 (stereo not given),15.6,,"18.4 µM [falling, partial curve]"
O=C(OCCN=C1NS(=O)(=O)c2ccccc21)c1cccnc1,-14.1,,"10.3 µM [rising, partial curve]"
Cn1ccnc1C1CCCCN1Cc1nc(Cc2cccc(C(F)(F)F)c2)no1 (stereo not given),18.9,,"2.59 µM [rising, partial curve, poor fit]"
Cc1cccc(OCC(=O)NNC(=O)CCCCC(=O)NNC(=O)COc2cccc(C)c2)c1,-36,"0.058 µM [falling, full curve, poor fit]","10.3 µM [falling, partial curve]"
O=C(Cn1c(=O)[nH]c2ccccc2c1=O)Nc1ccc2c(c1)OCCO2,29.5,,
CCC1CCC(C(=O)NC(C(=O)NCCc2ccc(S(N)(=O)=O)cc2)C(C)C)CC1 (stereo not given),24.6,,
CC1CCN(Cc2ccc(-c3nn[nH]n3)cc2)CC1,-23.3,,"0.00461 µM [falling, full curve, poor fit]"
Cc1ccc(-n2nc3c(N4CCC(C(=O)NCc5ccccc5C)CC4)nnc(C)c3c2C)cc1,-9.23,,
CCN(CC)c1ccc(C=N/C(C#N)=C(\N)C#N)cc1,4.86,,"0.116 µM [falling, full curve, poor fit]"
N#C/C(=N\Nc1ccc(S(=O)(=O)N2CCCCC2)cc1)C(N)=S,66.7,"16.4 µM [rising, partial curve]","0.92 µM [falling, full curve, poor fit]"
COC(=O)c1ccc(C(=O)Nc2cc(Cl)ccc2Cl)cc1NC(=O)c1ccccc1C,101,"0.517 µM [rising, single point]","0.231 µM [rising, full curve, poor fit]"
CC1CCC/C=C/C(=O)c2c(O)cc(O)cc2CC(=O)O1 (stereo not given),-62.3,"32.6 µM [falling, single point]",
COc1ccc(OC)c(Nc2nc(=O)c3cccnc3s2)c1,-22.3,,"16.4 µM [falling, single point]"
CN(c1ccccc1C(=O)Nc1ccc(S(=O)(=O)N2CCOCC2)cc1)S(=O)(=O)c1ccccc1,-83.3,"29.1 µM [falling, partial curve, poor fit]","0.00461 µM [falling, full curve, poor fit]"
COC(=O)c1c(-c2cccc(C)c2)csc1N,-27.2,,"7.31 µM [rising, partial curve, poor fit]"
CCCN(CCC)S(=O)(=O)c1ccc(C(=O)Nc2nnc(-c3cc(OC)cc(OC)c3)o2)cc1,-15.1,"4.11 µM [rising, partial curve]",
Cc1nc2ccccc2c(=O)n1/N=C1\C(=O)N(C)c2ccccc21,-9.47,,"0.92 µM [falling, full curve]"
CC1(C)Oc2ccc3ccc(=O)oc3c2/C(=C/N)C1=O,10.4,,"29.1 µM [rising, single point]"
COc1ccccc1N1CC(C(=O)Nc2ccccc2N2CCCC2)CC1=O (stereo not given),-26,"0.0461 µM [falling, full curve, poor fit]",
CCN(CC)C(=O)c1sc(NC(=O)c2cccnc2)c(C(=O)OC)c1C,-33.3,"20.6 µM [falling, single point]","20.6 µM [rising, partial curve]"
CCN1CCN(CCNC(=O)c2ccc3c(c2)NC(=O)/C(=C\c2ccc(OC)c(OC)c2)S3)CC1,3.3,,"29.1 µM [falling, single point]"
Cc1cc(C)c(OCC(=O)OCC(=O)NC2CCCCCCC2)c(C)c1,,,"29.1 µM [falling, single point]"
Cc1ccccc1-n1nc2c(c1NC(=O)/C=C\c1ccc3c(c1)OCO3)CSC2,4.9,,"0.0651 µM [rising, full curve]"
C/C(=N\NC(=O)c1cccc(N/N=C(\C)c2ccco2)c1)c1ccco1,,"0.58 µM [rising, full curve, poor fit]","2.31 µM [rising, partial curve]"
CCN1CCN(C(=O)C2CCN(S(=O)(=O)c3cc(Cl)ccc3Cl)CC2)CC1,-16.2,,"6.51 µM [falling, single point]"
COC(=O)c1cc2sc(Cl)cc2n1Cc1nc(-c2ccccc2)oc1C,5.05,,"0.00411 µM [rising, full curve, poor fit]"

# For convenience, some entries already given.
Compound,cell number change [%],AC50 [1],AC50 [2]
CCCN(CCC)S(=O)(=O)c1ccc(C(=O)Nc2nnc(-c3cc(OC)cc(OC)c3)o2)cc1,-15.1,"4.11 µM [rising, partial curve]",
Cc1nc2ccccc2c(=O)n1/N=C1\C(=O)N(C)c2ccccc21,-9.47,,"0.92 µM [falling, full curve]"
CC1(C)Oc2ccc3ccc(=O)oc3c2/C(=C/N)C1=O,10.4,,"29.1 µM [rising, single point]"
COc1ccccc1N1CC(C(=O)Nc2ccccc2N2CCCC2)CC1=O (stereo not given),-26,"0.0461 µM [falling, full curve, poor fit]",
CCN(CC)C(=O)c1sc(NC(=O)c2cccnc2)c(C(=O)OC)c1C,-33.3,"20.6 µM [falling, single point]","20.6 µM [rising, partial curve]"
CCN1CCN(CCNC(=O)c2ccc3c(c2)NC(=O)/C(=C\c2ccc(OC)c(OC)c2)S3)CC1,3.3,,"29.1 µM [falling, single point]"
